Data: doi:10.1101/2021.09.06.459131
These are yes or no findings as the source states them, for the method shown. Binding seen in cells or lysates may run through a third protein. Some entries that bind do so weakly or less than the wild type.

Protein sequences, listed by entry. Tags and fused reporters are not part of them.
UniProt P29350: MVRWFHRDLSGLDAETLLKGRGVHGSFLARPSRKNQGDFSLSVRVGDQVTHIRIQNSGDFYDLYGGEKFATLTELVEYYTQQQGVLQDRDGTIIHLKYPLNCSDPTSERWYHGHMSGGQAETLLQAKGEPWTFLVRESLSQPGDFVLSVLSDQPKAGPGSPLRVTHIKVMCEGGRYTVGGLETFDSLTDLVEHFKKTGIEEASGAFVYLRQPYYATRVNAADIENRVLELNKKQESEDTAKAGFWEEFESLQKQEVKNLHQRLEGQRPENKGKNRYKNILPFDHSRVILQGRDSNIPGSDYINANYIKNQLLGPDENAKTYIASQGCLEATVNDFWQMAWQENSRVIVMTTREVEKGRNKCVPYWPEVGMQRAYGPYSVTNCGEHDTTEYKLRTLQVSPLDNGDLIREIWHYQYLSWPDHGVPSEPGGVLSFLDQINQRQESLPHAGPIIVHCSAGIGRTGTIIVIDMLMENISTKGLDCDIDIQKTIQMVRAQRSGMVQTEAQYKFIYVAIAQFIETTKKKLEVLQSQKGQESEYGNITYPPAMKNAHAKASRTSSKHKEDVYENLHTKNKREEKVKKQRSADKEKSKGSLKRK
UniProt Q04759: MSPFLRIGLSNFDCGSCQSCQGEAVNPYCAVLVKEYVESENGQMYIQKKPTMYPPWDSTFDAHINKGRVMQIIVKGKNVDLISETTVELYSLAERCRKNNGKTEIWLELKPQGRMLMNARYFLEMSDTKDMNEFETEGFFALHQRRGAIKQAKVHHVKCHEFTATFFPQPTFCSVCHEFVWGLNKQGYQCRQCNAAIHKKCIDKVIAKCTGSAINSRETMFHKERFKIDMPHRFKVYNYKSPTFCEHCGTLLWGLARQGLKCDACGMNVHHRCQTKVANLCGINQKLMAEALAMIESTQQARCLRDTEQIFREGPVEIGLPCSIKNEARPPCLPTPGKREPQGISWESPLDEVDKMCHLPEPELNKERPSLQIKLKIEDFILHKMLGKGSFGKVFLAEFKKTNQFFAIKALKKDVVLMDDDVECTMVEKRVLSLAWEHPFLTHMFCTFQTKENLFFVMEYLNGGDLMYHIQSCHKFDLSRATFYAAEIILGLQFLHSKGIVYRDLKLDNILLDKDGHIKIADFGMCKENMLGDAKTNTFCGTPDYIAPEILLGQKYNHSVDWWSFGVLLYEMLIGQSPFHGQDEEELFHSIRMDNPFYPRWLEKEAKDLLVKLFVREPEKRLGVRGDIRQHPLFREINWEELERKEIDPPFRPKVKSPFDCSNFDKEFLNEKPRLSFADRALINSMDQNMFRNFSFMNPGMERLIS

Biological target: SHP-1 (human (endogenous in YTS-2DL1)) (UniProt P29350)
Assay: co-IP

binding: binds
Substance: PKC-θ (from UniProt Q04759 1-706) (enzyme)
